The chains behind the UniProt entries cited, without tags or fusion partners. Where a name states a change or a piece, a line headed by the entry shows the natural chain unless it says otherwise.
UniProt P22303: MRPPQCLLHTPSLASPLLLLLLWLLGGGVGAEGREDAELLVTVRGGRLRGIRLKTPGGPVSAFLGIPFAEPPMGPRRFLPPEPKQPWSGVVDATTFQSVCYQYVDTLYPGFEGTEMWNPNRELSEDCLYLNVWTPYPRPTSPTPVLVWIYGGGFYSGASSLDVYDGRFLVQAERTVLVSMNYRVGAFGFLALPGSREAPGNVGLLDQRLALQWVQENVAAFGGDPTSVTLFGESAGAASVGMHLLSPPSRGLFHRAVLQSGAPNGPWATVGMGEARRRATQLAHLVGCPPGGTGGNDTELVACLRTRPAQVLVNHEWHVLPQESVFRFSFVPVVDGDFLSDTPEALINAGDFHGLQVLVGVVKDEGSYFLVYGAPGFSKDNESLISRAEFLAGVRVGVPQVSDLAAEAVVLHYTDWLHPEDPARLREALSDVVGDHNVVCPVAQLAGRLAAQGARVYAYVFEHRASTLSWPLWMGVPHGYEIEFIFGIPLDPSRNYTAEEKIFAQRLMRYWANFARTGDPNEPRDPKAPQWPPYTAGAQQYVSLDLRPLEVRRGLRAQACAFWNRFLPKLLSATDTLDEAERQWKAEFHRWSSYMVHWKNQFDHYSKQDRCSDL

This test has as its target Acetylcholinesterase (Homo sapiens, UniProt P22303). The experiment in a line: Inhibition of AChE (unknown origin) using acetylthiocholine chloride as substrate incubated for 5 mins by DTNB reagent based Ellman's method. In general terms: In Ellman's method for cholinesterases, released thiocholine reacts with DTNB.
As usually defined, the IC50 is the concentration needed to halve the response being measured. On to `Cc1c(C)c2ccc(OCc3cccc(F)c3)cc2oc1=O`, for which the IC50 came to 3 µM.
The same measure for `Cc1c(C)c2ccc(OCc3cccc(Cl)c3)cc2oc1=O`: 3 µM; for `Cc1cccc(COc2ccc3c(C)c(C)c(=O)oc3c2)c1`: 3 µM.
The same measure for `COc1cccc(COc2ccc3c(C)c(C)c(=O)oc3c2)c1`: 3 µM; for `Cc1ccc(COc2ccc3c(C)c(C)c(=O)oc3c2)cc1`: 3 µM; for `Cc1c(C)c2ccc(OCc3ccc(F)cc3)cc2oc1=O`: 3 µM.

The values are drawn from ChEMBL document CHEMBL5244208, “Privileged scaffolds as MAO inhibitors: Retrospect and prospects” (Eur J Med Chem, 2018).
